Laboratory results taken from paper PMC4543939.
These are yes or no findings as the source states them, for the method shown. Binding seen in cells or lysates may run through a third protein. Some binding calls cover weakened binding; strength is not graded here. Sequences can lack the tags named with a protein.

By UniProt entry, the sequences of proteins in these tests, tags left out.
UniProt O46674: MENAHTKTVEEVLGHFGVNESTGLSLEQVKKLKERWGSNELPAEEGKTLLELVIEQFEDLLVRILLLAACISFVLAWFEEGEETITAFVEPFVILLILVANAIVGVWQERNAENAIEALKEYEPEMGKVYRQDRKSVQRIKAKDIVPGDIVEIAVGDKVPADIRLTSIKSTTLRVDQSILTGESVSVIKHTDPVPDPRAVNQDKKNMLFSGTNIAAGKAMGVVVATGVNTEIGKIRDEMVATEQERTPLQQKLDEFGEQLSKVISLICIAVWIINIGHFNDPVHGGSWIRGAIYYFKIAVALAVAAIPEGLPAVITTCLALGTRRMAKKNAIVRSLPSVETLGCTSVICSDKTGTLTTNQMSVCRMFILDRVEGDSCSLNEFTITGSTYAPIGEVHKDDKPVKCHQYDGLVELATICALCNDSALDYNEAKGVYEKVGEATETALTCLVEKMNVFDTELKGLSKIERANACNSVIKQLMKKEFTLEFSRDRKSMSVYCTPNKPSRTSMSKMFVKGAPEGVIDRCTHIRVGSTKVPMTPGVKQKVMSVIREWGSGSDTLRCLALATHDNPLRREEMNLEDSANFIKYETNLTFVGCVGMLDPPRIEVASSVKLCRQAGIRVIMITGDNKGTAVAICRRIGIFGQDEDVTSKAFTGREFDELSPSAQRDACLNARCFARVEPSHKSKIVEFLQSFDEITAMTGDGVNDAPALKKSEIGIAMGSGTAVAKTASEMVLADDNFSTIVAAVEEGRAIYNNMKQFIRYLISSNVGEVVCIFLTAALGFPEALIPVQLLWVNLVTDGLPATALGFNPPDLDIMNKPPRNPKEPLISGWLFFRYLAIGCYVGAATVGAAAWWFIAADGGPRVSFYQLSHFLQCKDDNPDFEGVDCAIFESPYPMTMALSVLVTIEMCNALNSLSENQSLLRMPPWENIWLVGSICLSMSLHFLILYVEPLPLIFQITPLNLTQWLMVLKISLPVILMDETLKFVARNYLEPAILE

Target: Cer-SERCA: canine SERCA2a fused at its N-terminus with mCerulean (canine) (UniProt O46674)
Assay: FRET or BRET; in-cell binding assay, acceptor sensitization FRET in living AAV-293 cells co-transfected with Cer-SERCA and YFP-PLN-WT (1:20); FRET against relative protein concentration cell by cell, hyperbolic fit; apparent KD2 of the PLN-SERCA complex; with or without 1 uM 50-mer ssDNA

B1: YFP-PLN-WT: canine phospholamban fused at its N-terminus with enhanced yellow fluorescent protein (protein, UniProt P61012 1-52)
chain: MDKVQYLTRSAIRRASTIEMPQQARQNLQNLFINFCLILICLLLICIIVMLL
Question: Which binding does the source give for B1 here?
Answer: binds
